Numbering of substitutions follows the chain as printed. No constants are given. Whether binding was seen depends on the method and setting. Binding seen in cells or lysates may run through a third protein. Some binding calls cover weakened binding; strength is not graded here.
Assays:
[1] = target: T1, TNS2 (tensin-2) wild type (not stated (human or mouse cDNA cloned)) (UniProt Q63HR2); experiment: co-IP; co-overexpression in HEK293T cells; lysates pre-cleared with protein G or A beads, antibody overnight at 4 °C in lysis buffer with protease inhibitors, protein G or A beads (GFP-Trap agarose for GFP fusions), washed four times, immunoblot; confirmatory co-IPs for several pairs; DLC1 with CAV1 also reciprocal in cells pre- and post-treated with 100 uM dexamethasone, results not altered
T1 sequence: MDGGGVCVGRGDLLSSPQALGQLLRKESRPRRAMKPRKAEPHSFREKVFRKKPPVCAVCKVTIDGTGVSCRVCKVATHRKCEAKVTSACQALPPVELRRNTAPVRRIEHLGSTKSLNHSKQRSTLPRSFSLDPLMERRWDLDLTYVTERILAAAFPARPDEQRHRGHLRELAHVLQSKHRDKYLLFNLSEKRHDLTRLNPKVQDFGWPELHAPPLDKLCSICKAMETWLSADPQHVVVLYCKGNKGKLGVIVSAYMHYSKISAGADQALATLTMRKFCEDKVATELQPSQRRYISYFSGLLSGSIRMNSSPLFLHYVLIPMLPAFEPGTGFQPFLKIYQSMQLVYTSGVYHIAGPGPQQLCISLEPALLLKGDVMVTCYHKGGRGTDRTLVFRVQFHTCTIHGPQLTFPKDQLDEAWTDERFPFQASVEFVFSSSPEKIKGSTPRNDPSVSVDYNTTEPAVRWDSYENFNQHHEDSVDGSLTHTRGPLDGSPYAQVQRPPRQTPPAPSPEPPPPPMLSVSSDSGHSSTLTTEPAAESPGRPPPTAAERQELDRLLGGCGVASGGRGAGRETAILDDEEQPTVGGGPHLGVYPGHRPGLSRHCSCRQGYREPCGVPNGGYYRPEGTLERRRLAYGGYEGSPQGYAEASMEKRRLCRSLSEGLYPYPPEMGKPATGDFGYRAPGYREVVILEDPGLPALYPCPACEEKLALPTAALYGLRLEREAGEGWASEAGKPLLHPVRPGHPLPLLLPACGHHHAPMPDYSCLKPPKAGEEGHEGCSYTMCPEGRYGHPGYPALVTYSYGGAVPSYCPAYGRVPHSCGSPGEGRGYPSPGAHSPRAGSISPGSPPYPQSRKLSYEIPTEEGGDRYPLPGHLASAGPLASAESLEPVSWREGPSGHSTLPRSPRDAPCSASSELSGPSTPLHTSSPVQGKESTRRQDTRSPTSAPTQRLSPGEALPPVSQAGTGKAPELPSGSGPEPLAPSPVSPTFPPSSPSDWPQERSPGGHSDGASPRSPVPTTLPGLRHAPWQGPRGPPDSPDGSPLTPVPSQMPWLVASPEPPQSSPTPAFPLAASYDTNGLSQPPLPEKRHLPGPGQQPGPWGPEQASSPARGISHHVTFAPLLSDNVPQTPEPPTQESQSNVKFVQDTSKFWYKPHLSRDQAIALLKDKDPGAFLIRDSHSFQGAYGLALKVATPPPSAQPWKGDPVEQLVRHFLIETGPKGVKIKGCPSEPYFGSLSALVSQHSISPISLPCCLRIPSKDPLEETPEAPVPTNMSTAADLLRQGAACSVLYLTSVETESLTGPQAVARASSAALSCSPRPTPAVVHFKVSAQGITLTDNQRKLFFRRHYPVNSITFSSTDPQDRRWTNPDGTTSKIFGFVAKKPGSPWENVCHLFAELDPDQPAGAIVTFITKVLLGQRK

Sequences of proteins named here, by UniProt entry; tags and fusion partners are left off.
UniProt O88382: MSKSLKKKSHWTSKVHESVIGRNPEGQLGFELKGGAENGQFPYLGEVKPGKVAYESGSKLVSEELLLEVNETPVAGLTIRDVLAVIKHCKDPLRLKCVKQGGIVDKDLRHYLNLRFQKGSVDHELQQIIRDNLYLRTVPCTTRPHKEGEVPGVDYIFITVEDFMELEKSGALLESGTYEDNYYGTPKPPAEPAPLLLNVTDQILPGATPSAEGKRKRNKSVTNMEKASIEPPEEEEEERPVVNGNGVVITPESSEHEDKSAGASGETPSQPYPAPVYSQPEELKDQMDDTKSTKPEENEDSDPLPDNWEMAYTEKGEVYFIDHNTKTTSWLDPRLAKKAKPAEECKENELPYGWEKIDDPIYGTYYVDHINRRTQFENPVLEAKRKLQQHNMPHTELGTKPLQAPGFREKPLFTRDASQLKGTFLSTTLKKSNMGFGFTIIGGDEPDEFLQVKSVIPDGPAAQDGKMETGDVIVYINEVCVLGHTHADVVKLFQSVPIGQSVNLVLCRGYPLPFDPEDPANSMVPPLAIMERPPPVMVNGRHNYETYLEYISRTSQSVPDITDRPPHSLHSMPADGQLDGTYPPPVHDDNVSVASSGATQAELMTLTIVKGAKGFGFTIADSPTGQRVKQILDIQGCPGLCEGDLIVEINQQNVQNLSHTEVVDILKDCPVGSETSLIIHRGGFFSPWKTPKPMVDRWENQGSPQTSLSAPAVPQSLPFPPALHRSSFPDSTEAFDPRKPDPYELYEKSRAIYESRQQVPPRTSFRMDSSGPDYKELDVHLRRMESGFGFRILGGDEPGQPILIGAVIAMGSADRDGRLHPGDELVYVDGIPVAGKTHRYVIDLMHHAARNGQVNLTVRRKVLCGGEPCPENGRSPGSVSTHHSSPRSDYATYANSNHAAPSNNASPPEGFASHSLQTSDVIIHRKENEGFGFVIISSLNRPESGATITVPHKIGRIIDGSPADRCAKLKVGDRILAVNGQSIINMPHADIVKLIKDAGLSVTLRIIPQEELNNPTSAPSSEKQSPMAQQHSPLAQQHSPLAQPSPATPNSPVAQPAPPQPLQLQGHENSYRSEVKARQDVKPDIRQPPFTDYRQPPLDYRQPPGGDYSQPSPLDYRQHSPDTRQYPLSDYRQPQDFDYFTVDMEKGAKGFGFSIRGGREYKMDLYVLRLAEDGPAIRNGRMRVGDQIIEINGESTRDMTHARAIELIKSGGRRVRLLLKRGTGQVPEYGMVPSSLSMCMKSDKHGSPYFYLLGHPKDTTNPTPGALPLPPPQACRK

[2] = target: T2, TNS2 mutant p.Ile858Met (not stated (human or mouse cDNA cloned)) (UniProt Q63HR2); experiment: as above
T2 sequence: T1 sequence with I858M

Q: With “MAGI2 wild type (rat Magi2, S-SCAM, full-length cDNA) (from UniProt O88382 1-1277)” as the substance, how does the binding [1] read?
A: binds

Q: What about the binding [2] of the same substance?
A: binds

Reference: article PMC5958119
